# The list shows a part of the results.
# Sequences of proteins named here, by UniProt entry; tags and fusion partners are left off.
# UniProt Q0JBA9, entry or part of it: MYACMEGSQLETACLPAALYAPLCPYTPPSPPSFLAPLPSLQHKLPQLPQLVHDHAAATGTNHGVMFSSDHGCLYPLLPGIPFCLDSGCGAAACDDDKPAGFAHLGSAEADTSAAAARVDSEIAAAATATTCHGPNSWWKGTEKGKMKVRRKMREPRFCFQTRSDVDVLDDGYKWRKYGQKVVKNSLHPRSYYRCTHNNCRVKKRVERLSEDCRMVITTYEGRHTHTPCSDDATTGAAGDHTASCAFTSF
# Biological target: OsWRKY34 (Oryza sativa, UniProt Q0JBA9 1-250)
# Experiment: protein-binding microarray (RPBM); PBS, 2% BSA, 51.3 ng/ul salmon testes DNA, 50 uM zinc acetate, 200 nM TF, 25 C, 1 h; high values mean tight binding
# Conditions: protein: recombinant; tags: N-terminal polyhistidine and DsRed monomer fusion (pET32a); label: CyDye5-dUTP incorporated in the synthesized complementary strand; 3' TTTTT single-stranded linker to array surface; dsDNA, one strand shown
# In short: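 Binding signal is defined as the fluorescence intensity of each feature in arbitrary units, read on an Axon 4000B scanner. Transcription factors with N-terminal polyhistidine and DsRed fusions came from E. coli BL21-CodonPlus and were purified on Ni–NTA. They were incubated at 200 nM for 1 h at 25 °C on a custom Agilent array that had been made double-stranded with Cy5-dUTP, with 50 µM zinc acetate present, and the array was washed.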
row,Sequence,binding signal
1,ACATACTCCGATCTTACTCCCTAGCTTGCAGAATTATTCTCGGAGTCACCTAGTGCAG,10400 fluorescence intensity (a.u.)
2,TCGTTCATGAATGCTCTCCGTTGTGTGTGTGTATCCCCTGCGGAGTCACCTAGTGCAG,8800 fluorescence intensity (a.u.)
3,TCGTCGAAGTTGTTGTACCTAGGGTGGGAGGAGTAGTGGCCGGAGTCACCTAGTGCAG,8140 fluorescence intensity (a.u.)
4,TCTAATCCATTGCCTCGTTTTTATCTATAGACTATCTCTACGGAGTCACCTAGTGCAG,10500 fluorescence intensity (a.u.)
5,CTTTTCTTTTTCTTCTTTTTTTTTATTATATACTAATAATCGGAGTCACCTAGTGCAG,9100 fluorescence intensity (a.u.)
6,TCGCCGCTCGCTGGGCCTGTGTCGTCGTCGTTGTTCGCTTCGGAGTCACCTAGTGCAG,10100 fluorescence intensity (a.u.)
7,TCATATTCAGCCCTAGGTTTATGTTGAGTTGGTCTTATCGCGGAGTCACCTAGTGCAG,8730 fluorescence intensity (a.u.)
8,CATGCCTTTTGTTTGTTCCATTTGGGCTATTATGTCGTCACGGAGTCACCTAGTGCAG,13900 fluorescence intensity (a.u.)
9,CGGATCGCTGAATCTTGCTGGTGGTGGTGGTGGTGGTGGTCGGAGTCACCTAGTGCAG,13800 fluorescence intensity (a.u.)
10,CATTCGAACTTCAAGATTTGTCTGTTTAACTACTTTAAAACGGAGTCACCTAGTGCAG,9010 fluorescence intensity (a.u.)
11,CTTCCAGGCAGTTGTTCTGTATCCTCTTCTTGTTGCAACACGGAGTCACCTAGTGCAG,8920 fluorescence intensity (a.u.)
12,CTCTGTTGGCTGCCCATGTCCTTTTATGGACCCTTTTATGCGGAGTCACCTAGTGCAG,10900 fluorescence intensity (a.u.)
13,AAAATATGTTAGTGTAGCTACATCCTAGTTACATTCCACTCGGAGTCACCTAGTGCAG,9830 fluorescence intensity (a.u.)
14,AACGCGTGTATTTCTATGCTTTTGATATTGATCTTGCATCCGGAGTCACCTAGTGCAG,8230 fluorescence intensity (a.u.)
15,ATCCGTCCTAAAATACTTGTCGTTTTGAGTTTTTCTTTCTCGGAGTCACCTAGTGCAG,10700 fluorescence intensity (a.u.)
16,TACGGGTTAGGGTTTGGGGTTGGGGTCAAGGTAGGAGGGGCGGAGTCACCTAGTGCAG,22500 fluorescence intensity (a.u.)
17,TCTGGACTTGTGATTTCTTGACATGTTCGTTTTTCTATTTCGGAGTCACCTAGTGCAG,9960 fluorescence intensity (a.u.)
18,GTACACATTTTCGTCTTCATTTCTCGATAACATTCTAACACGGAGTCACCTAGTGCAG,8100 fluorescence intensity (a.u.)
19,CTCTTTTTTTTTTGGTGTTTTAATAAGCACAACACATATACGGAGTCACCTAGTGCAG,8150 fluorescence intensity (a.u.)
20,GTCAAATATATTTTAAAAAGTCAACGGTATTAAATATTTACGGAGTCACCTAGTGCAG,13100 fluorescence intensity (a.u.)
21,ACTGCCGTGCGCGCGATTCCCTCGTCCCACCCTGCTGAAACGGAGTCACCTAGTGCAG,11800 fluorescence intensity (a.u.)

row,Sequence,binding signal
1,CCGGGCGCTCCTCTCGTTTCCTGGCCCATCATCCGTCACCCGGAGTCACCTAGTGCAG,8560 fluorescence intensity (a.u.)
2,TGGGGCATATAATTTTTTTTCAATATTATTTAGTCTCTCGCGGAGTCACCTAGTGCAG,8720 fluorescence intensity (a.u.)
3,TCGAGCTGGGTGGGGTTTTTATATGGGAGGAGAGGCCGCGCGGAGTCACCTAGTGCAG,16800 fluorescence intensity (a.u.)
4,AAAGTTTTTCACCACCACAATGCGCCACGTCACCAGAAAACGGAGTCACCTAGTGCAG,8280 fluorescence intensity (a.u.)
5,GAGTGGTGGAGGGTTGTGATTGGATGAGTAGTGGAGGTAGCGGAGTCACCTAGTGCAG,8760 fluorescence intensity (a.u.)
6,ACTGTGTCAAAGCCTTTTCTCTACTTCTGAGGGAACTATTCGGAGTCACCTAGTGCAG,8230 fluorescence intensity (a.u.)
7,TACTAGCTGGTCTGGCCCTACTCAGTTTTACGTGTACCTACGGAGTCACCTAGTGCAG,9490 fluorescence intensity (a.u.)
8,TCATTTCGTGCGCGGGGAGGGAGGGGAAAAAAACCCTAAACGGAGTCACCTAGTGCAG,9820 fluorescence intensity (a.u.)
9,TGTTACTGAAGTCCAATCATTTTTGCTTCTTCACCAAATTCGGAGTCACCTAGTGCAG,10000 fluorescence intensity (a.u.)
10,ATGTTTTTGCTTCCGGAACGGACCGTGCGTTACGTTTTCTCGGAGTCACCTAGTGCAG,12100 fluorescence intensity (a.u.)
11,GCTATCTTTTCGCTGTTGCAATGAAATTTCCTGATCACATCGGAGTCACCTAGTGCAG,12600 fluorescence intensity (a.u.)
12,TAAGACGAATGGTCAAACATGTGAGAAAAAGTCAACGGCGCGGAGTCACCTAGTGCAG,13100 fluorescence intensity (a.u.)
13,CTATCCATATCCGACCCGATTCTAATTATCAATCACCTATCGGAGTCACCTAGTGCAG,9000 fluorescence intensity (a.u.)
14,CCTAACCTGATTGGCTAAAGTTTTCCTTTCTTTGTTTTTTCGGAGTCACCTAGTGCAG,10300 fluorescence intensity (a.u.)
15,GGCCTAAAACATAGGACGATGGTCAGAGTTATATTTTTCACGGAGTCACCTAGTGCAG,8040 fluorescence intensity (a.u.)
16,GCTTGTTTTCGAAAGTTAGGGGATGGGTCGTACCCGGTTTCGGAGTCACCTAGTGCAG,9350 fluorescence intensity (a.u.)
17,TCGAAATGTTTGACGCCGTTGACTTTTTAAGTATATGTTTCGGAGTCACCTAGTGCAG,29200 fluorescence intensity (a.u.)
18,TTCAATTTTTCCGTCGCATCGTTCCAATTTCAACCAAACTCGGAGTCACCTAGTGCAG,8460 fluorescence intensity (a.u.)
19,GTCACCATCCACCGTTTATTCGCAGCTCGTTTTATCACTACGGAGTCACCTAGTGCAG,14800 fluorescence intensity (a.u.)
20,CTGCCATGCCCGAGCTCGCGTCCGGTCGCCGCCGTAGTCACGGAGTCACCTAGTGCAG,8850 fluorescence intensity (a.u.)
21,AATCACGGCGGGTCAAGCACAAACCAGGTGTTGACCGGCACGGAGTCACCTAGTGCAG,12500 fluorescence intensity (a.u.)
